Some results were stated once for a whole list of compounds, not compound by compound.
Molecular target: T1, endogenous mouse MPO (Mus musculus, UniProt P11247)
T1 construct: endogenous in cells; host or cells: inflammatory cells recruited by LPS in C57BL6 male mice (Matrigel site in the thigh, or flank muscle myositis)
T1 sequence (P11247 139-718): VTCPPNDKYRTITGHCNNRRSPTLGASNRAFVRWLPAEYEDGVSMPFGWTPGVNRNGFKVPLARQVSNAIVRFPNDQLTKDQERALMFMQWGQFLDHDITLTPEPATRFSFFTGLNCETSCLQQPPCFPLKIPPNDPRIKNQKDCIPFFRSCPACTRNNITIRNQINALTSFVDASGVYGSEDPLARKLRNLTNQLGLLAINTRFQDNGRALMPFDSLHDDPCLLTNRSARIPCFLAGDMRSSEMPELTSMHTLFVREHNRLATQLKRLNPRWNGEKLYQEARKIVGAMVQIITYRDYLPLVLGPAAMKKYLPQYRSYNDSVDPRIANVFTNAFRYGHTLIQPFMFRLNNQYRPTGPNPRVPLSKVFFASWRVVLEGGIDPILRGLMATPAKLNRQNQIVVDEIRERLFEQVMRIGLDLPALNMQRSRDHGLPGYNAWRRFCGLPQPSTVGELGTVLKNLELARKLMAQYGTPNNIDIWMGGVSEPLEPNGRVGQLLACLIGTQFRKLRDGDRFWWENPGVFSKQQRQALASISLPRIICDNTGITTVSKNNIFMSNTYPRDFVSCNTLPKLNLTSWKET
Experiment: LPS induced myositis, MR imaging at 4.7 T
Format: in vivo
Details: mice with myositis
Protocol: The MR imaging experiments were performed on a 1.5 T GE Excite scanner and a 4.7 T Bruker Pharmascan scanner. For all MR imaging experiments, precontrast T2-(TR=2000, TE=100, ETL=8, NEX=4, fast spin echo sequence) and T1-weighted images (TR=500, TE=11, NEX=4, spin echo sequence) with fat saturation were initially performed to locate the gels or area of inflammation. The substrates (0.3 mmol/kg) were subsequently injected via the tail vein of the mouse. The mouse was immediately imaged after the injection of the contrast agent using multiple T1-weighted sequences with fat saturation for at least 3 hours.
Ten-week old C57BL6 male mice were obtained from Jackson Laboratories. A total of 22 mice were used for the study. • 1. MPO/Matrigel imaging experiments: Matrigel™ (Beckton-Dickinson), a […] basement membrane matrix gel was used to immobilize human MPO and glucose oxidase (to supply H2O2 required for detecting MPO oxidative activity, Calbiochem). This was chosen to reflect deposits of human MPO in inflamed tissue in a mouse model. 400 μL of a mixture of Matrigel™ and MEM (Cambrex) was injected slowly into the thighs of each mouse one hour prior to imaging. The right thigh mixture also contained 15 U of MPO and 4 U of glucose oxidase (Calbiochem), while the left thigh mixture contained no enzyme and thus serves as an internal control. […]

O=C([O-])CN(CCN(CC(=O)[O-])CC(=O)NCCc1c[nH]c2ccc(O)cc12)CCN(CC(=O)[O-])CC(=O)NCCc1c[nH]c2ccc(O)cc12.[Gd+3] [2Gd^3+]
persistence of enhancement after injection: more than 50 minutes

Reference: patent publication US8153784B2, “Imaging of enzyme activity” (The General Hospital Corporation, priority 2004, dated 2012)
